# Data as given in PMC12713027.
# For at least one entry, the source does not settle the construct or the ends of the probe.
# Molecular target: His-Avrxa27CRR (AvrXa27 central repeat region) (UniProt A0A0K0GNW2)
# Test: EMSA
# Conditions: recombinant protein; protein details: His; label: 5'-Cy5 on both strands
row,Sequence,binding result
1,TAATGCTAAAAAAACCTT (double strand) [EBE3 probe],binds
2,TAATTAAATTCAACCTAT (double strand) [EBE2 probe],binds
3,TAGTTCTGAAAATAAGTC (double strand) [EBE1 probe],binds
4,TCATTGACCTGATCCAAC (double strand) [EBE4 probe],binds
